According to PubChem BioAssay AID2685 (National Center for Advancing Translational Sciences (NCATS), 2010):
The other results are listed elsewhere or left out. The main result of the screen is listed elsewhere. These columns were measured beside it and carry no call. Most of these compounds were active or inconclusive in the main read-out, so they are no random draw. Words in brackets tell the shape of the fitted curve; partial curves, single points and poor fits give uncertain potencies.

Test: qHTS Assay for Lipid Storage Modulators in Drosophila S3 Cells;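 as to cell number change: cells counted by Cell Tracker Red CMTPX staining in the red channel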
Conditions: BODIPY lipid droplet fluorescence, 18-24 h; for cell number change: measured here: cell count max response, cells fed with added oleic acid
How it was run: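 Drosophila S3 cells loaded with oleic acid (400 uM, as added) and compounds at several concentrations; lipid droplets imaged by 488-nm laser-scanning cytometry, 500–530 nm intensity and object ratio to cell channel. Percent activity normalized to 20 uM Triacsin C.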

[1] = measured here: lipid fluorescence (Fed channel) AC50, cells fed with added oleic acid
[2] = measured here: cell number channel AC50, cells fed with added oleic acid

Compound: O=C(Nc1cc(S(=O)(=O)N2CCCCCC2)ccc1OCC(F)(F)F)c1cnccn1
- cell number change: 25.5%
- AC50 [1]: 20.6 µM [rising, partial curve, poor fit]

Compound: CC(NC(=O)CCN1C(=O)c2ccccc2C1=O)c1ccccc1 (stereo not drawn)
- cell number change: 12.6%
- AC50 [1]: 6.51 µM [falling, single point]

Compound: O=C(c1cccs1)N1CCCC(c2nc(-c3ccc(F)cc3)no2)C1 (stereo not drawn)
- cell number change: 20.1%
- AC50 [1]: 14.6 µM [rising, partial curve]

Compound: CCCCc1cc(=O)oc2cc(OCC(=O)Nc3ccccn3)ccc12
- cell number change: 1.13%
- AC50 [2]: 3.66 µM [falling, single point]
- AC50 [1]: 5.17 µM [falling, partial curve]

Compound: Cc1ccc(/C=C/C(=O)N2CCCC(C(N)=O)C2)o1 (stereo not drawn)
- cell number change: -23.8%
- AC50 [1]: 16.4 µM [falling, single point]

Compound: CC(/C=N/NC(=O)c1cc(-c2ccccc2)nc2ccccc12)=C\c1ccco1
- cell number change: -0.997%
- AC50 [1]: 3.66 µM [rising, single point]

Compound: CC(C)C1N(S(=O)(=O)c2ccccc2)CCN1S(=O)(=O)c1ccccc1
- AC50 [2]: 0.651 µM [falling, full curve, poor fit]

Compound: C=CCSCC1Nc2cc(Cl)c(S(N)(=O)=O)cc2S(=O)(=O)N1 (stereo not drawn)
- AC50 [1]: 25.9 µM [rising, single point]

Compound: O=C(Nc1ccccc1)c1ccccc1CSc1ccccc1
- cell number change: -16.5%
- AC50 [1]: 0.651 µM [falling, full curve, poor fit]

Compound: O=C(N/N=C/C(Br)=C/c1ccccc1)C(O)c1ccccc1 (stereo not drawn)
- cell number change: -46.8%
- AC50 [2]: 20.6 µM [falling, partial curve, poor fit]
- AC50 [1]: 11.6 µM [falling, partial curve]

Compound: Cc1nn(-c2nc(-c3ccco3)cc(C(F)(F)F)n2)c(C)c1Cl
- cell number change: 12.4%
- AC50 [1]: 11.6 µM [rising, partial curve, poor fit]

Compound: Cc1ccc(-c2noc(C3CCCN(C(=O)c4c(F)cccc4F)C3)n2)cc1 (stereo not drawn)
- cell number change: -17.7%
- AC50 [2]: 0.103 µM [falling, full curve, poor fit]
- AC50 [1]: 25.9 µM [falling, single point]

Compound: COCCOC(=O)C1=C(C)OC(N)=C(C#N)C1c1cc2cccc(C)c2nc1Cl (stereo not drawn)
- cell number change: 1.55%

Compound: COc1cccc(/C=N/NC(=O)Cn2cnc3c2c(=O)n(C)c(=O)n3C)c1
- cell number change: 24.3%
- AC50 [1]: 20.6 µM [rising, partial curve]

Compound: COCC(C)NS(=O)(=O)c1ccc(C)cc1 (stereo not drawn)
- cell number change: -93.5%
- AC50 [2]: 23.1 µM [falling, partial curve]

Compound: COc1ccc(S(=O)(=O)N(CCCN2CCOCC2)Cc2cccc(OC)c2OC)cc1
- cell number change: -11.9%
- AC50 [1]: 9.2 µM [rising, partial curve, poor fit]

Compound: Cc1ccc(C(=O)NCC(=O)NCCCc2ccccc2)cc1
- AC50 [1]: 0.231 µM [rising, full curve, poor fit]

Compound: O=C(CSc1nc(-c2ccc(F)cc2)nc2c1Cc1ccccc1O2)Nc1cccc(C(=O)O)c1
- cell number change: -16.3%
- AC50 [2]: 0.00461 µM [rising, full curve, poor fit]
- AC50 [1]: 0.00461 µM [rising, full curve, poor fit]

Compound: CCOC(=O)C1=C(C(F)(F)F)Nc2ncnn2C1c1cc(OC)ccc1OC (stereo not drawn)
- cell number change: 21.9%
- AC50 [1]: 5.8 µM [rising, full curve]

Compound: O/N=C/c1cn(-c2ccccc2)nc1-c1ccccc1
- cell number change: -46.6%
- AC50 [2]: 18.4 µM [falling, single point]
- AC50 [1]: 29.1 µM [falling, single point]

Compound: COc1ccc(NC(=O)CCSc2ccc(C)cc2)cc1S(=O)(=O)Nc1ccccc1Cl
- cell number change: -4.53%
- AC50 [1]: 0.00517 µM [rising, full curve, poor fit]

Compound: O=c1cnnc(Nc2ccc(Cl)c(C(F)(F)F)c2)[nH]1
- cell number change: 7.23%
- AC50 [1]: 5.8 µM [falling, single point]

Compound: COc1ccc(C2NC(=O)NC(O)(C(F)(F)F)C2C(=O)c2ccc(F)cc2)cc1 (stereo not drawn)
- cell number change: -35.4%
- AC50 [2]: 5.17 µM [falling, partial curve]
- AC50 [1]: 23.1 µM [falling, partial curve]

Compound: Cc1cc2nn(-c3ccccc3)nc2cc1NC(=O)c1cccs1
- cell number change: -2.64%
- AC50 [2]: 1.64 µM [rising, partial curve]
- AC50 [1]: 1.3 µM [rising, full curve]

Compound: CCOC(=O)c1c(C)[nH]c(C)c1C(=O)CN1C(=O)NC2(CCCCCC2)C1=O
- cell number change: -24.8%
- AC50 [1]: 29.1 µM [falling, single point]

Compound: CC(=O)c1ccc(S(=O)(=O)NCCCC(=O)N(C)Cc2ccc3c(c2)OCO3)cc1
- cell number change: 5.99%
- AC50 [2]: 0.82 µM [falling, full curve, poor fit]
- AC50 [1]: 0.92 µM [falling, full curve, poor fit]

Compound: COCCN1C(=O)C(=O)/C(=C(/O)c2ccc(S(=O)(=O)N3CCCCC3)cc2)C1c1ccc(O)c(OC)c1 (stereo not drawn)
- cell number change: -1.22%
- AC50 [1]: 29.1 µM [rising, single point]
